Values joined by “and” are separate entries in the source; they are usually repeats but may differ in a detail not shown here. Equal entries are not always repeated. Some results come without the dose or concentration used.
Test system: carbonylated peptides (carbonylation sites) of plasma proteins
Assay: SRM relative quantification of carbonylation sites, diabetic vs lean rat plasma (Example 5, Table 15)
Format: in vivo, Zucker diabetic and lean rats
Conditions: for Ratio (diabetic plasma pooled sample/lean plasma pooled sample) replicate 1 / Ratio (diabetic plasma pooled sample/lean plasma pooled sample) replicate 2: SRM of the peptide carrying the carbonylation site (modification and site in the same table row), pooled Zucker diabetic vs lean rat plasma; for Average: average of replicate 1 and 2 ratios, diabetic/lean pooled plasma, SRM, per carbonylation site; for Average (diabetic/lean rat plasma pooled sample): SRM ratio

Substance	Ratio (diabetic plasma pooled sample/lean plasma pooled sample) replicate 1	Ratio (diabetic plasma pooled sample/lean plasma pooled sample) replicate 2	Average	Average (diabetic/lean rat plasma pooled sample) (carbonylated peptide: Biotinylated deoxyglucosone adduct, site 49 (Gi|204352))	Average (diabetic/lean rat plasma pooled sample) (carbonylated peptide: Biotinylated oxidized arginine, site 656 (gi|8393024))	Average (diabetic/lean rat plasma pooled sample) (carbonylated peptide: Biotinylated oxidized arginine, site 688 (gi|8393024))	Average (diabetic/lean rat plasma pooled sample) (carbonylated peptide: Biotinylated oxidized lysine, site 77 (Gi|204570))	Average (diabetic/lean rat plasma pooled sample) (carbonylated peptide: Biotinylated HNE adduct, site 69 (gi|60678292))	Average (diabetic/lean rat plasma pooled sample) (carbonylated peptide: Biotinylated glyoxal, site 17 (gi|60678292))	Average (diabetic/lean rat plasma pooled sample) (carbonylated peptide: Biotinylated malodialdehyde, site 12 (gi|60678292))
hemoglobin beta-chain	0.79	1.25	1.02	1.02						
complement component 3	2.71 and 1.62	2.57 and 1.09	2.64 and 1.35		1.35	2.64				
major beta-hemoglobin	7.19	2.21	4.70				4.70			
Albumin [Albumin [Rattus norvegicus]]	1.20	1.00	1.10							
hemoglobin alpha 2 chain	25.88 and 1.94 and 0.52	14.54 and 2.06 and 0.87	20.21 and 2.00 and 0.69					20.21	0.52	2.00

From patent publication US9134318B2, “Detection of oxidized polypeptides” (Purdue Research Foundation, priority 2009, dated 2015)
